# Test results: the supplement of paper PMC12067093, “Discovery and optimisation of a covalent ligand for TRIM25 and its application to targeted protein ubiquitination” (Chemical Science, 2025)
# This is one part of the list.
# Compound: Cc1cc(ccc1-c1ccccc1)C(=O)N1CCCN(CC1)C(=O)CCl [compound 10]
# Test: probe-labelled cysteine peptide fold change vs DMSO (competition) (log2 fold change); higher = less target engagement (more negative = stronger competition)
# Conditions: 10 µM; THP-1; incubation time: 4 h
# 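Note: competitive profiling in live THP-1 cells: cysteine peptides tagged with an iodoacetamide desthiobiotin (IA-DTB) probe, intensity after compound treatment relative to DMSO-treated cells.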
row,Target,probe-labelled cysteine peptide fold change
1,PRDX1_Q06830_71_KLNCQVIGASVDSHFCHLAWVNTPK (UniProt Q06830),0.14
2,PPOX_P50336_410_EMPSHCLVHLHK (UniProt P50336),0.00157
3,PREX1_Q8TCU6_572_EEAVALGVGLCNNGFMHHVLEK (UniProt Q8TCU6),0.0448
4,PPP4C_P60510_193_KQEVPHDGPMCDLLWSDPEDTTGWGVSPR (UniProt P60510),-0.0839
5,PPP6R1_Q9UPN7_216_DENQHSNASQSLCDIIR (UniProt Q9UPN7),-0.28
6,PPP1CA_P62136_202_IMRPTDVPDQGLLCDLLWSDPDKDVQGWGENDR (UniProt P62136),-0.137
7,PRDX1_Q06830_83_KLNCQVIGASVDSHFCHLAWVNTPK (UniProt Q06830),0.0758
8,PPP4R2_Q9NY27_296_QHCTEEDEEEDEEEEEESFMTSR (UniProt Q9NY27),-0.407
9,PREP_P48147_343_DVLEWIACVR (UniProt P48147),0.146
10,PREB_Q9HCU5_378_CQLHLLPSRR (UniProt Q9HCU5),0.0552
11,PPT1_P50897_160_CPGESSHICDFIR (UniProt P50897),-0.276
12,PPP4R1_Q8TF05_566_SDLQDELDINELPNCK (UniProt Q8TF05),-0.348
13,PPP6R3_Q5H9R7_216_HSNASQSLCEIVR (UniProt Q5H9R7),0.0266
14,PPP5C_P53041_208_KCAYQILVQVK (UniProt P53041),0.289
15,PPP6R3_Q5H9R7_844_CAAPRPPSSSPEQR (UniProt Q5H9R7),0.018
16,PPP1R12C_Q9BZL4_109_AVLDSTNADGISALHQACIDENLEVVR (UniProt Q9BZL4),0.0819
17,PPP6R3_Q5H9R7_82_YKYPNISCELLTSDVSQMNDR (UniProt Q5H9R7),0.215
18,PRDX1_Q06830_71+83_LNCQVIGASVDSHFCHLAWVNTPK (UniProt Q06830),0.169

# Given as tab-separated lines: part of the list above
row	Target	probe-labelled cysteine peptide fold change
14	PPP5C_P53041_208_KCAYQILVQVK (UniProt P53041)	0.289
15	PPP6R3_Q5H9R7_844_CAAPRPPSSSPEQR (UniProt Q5H9R7)	0.018

# Later entries.

row,Target,probe-labelled cysteine peptide fold change
1,PPP4C_P60510_235_GAGYLFGSDVVAQFNAANDIDMICR (UniProt P60510),0.071
2,PPP1R27_Q86WC6_105_DEAGWTPLHIACSDGYPDIAR (UniProt Q86WC6),0.329
3,PPP2R1B_P30154_389_ENTIEHLLPLFLAQLKDECPDVR (UniProt P30154),-0.162
4,PREX1_Q8TCU6_836_LSLCEDSPMVTLTVDNVHLEHGVVYEYVSTAGVR (UniProt Q8TCU6),-0.0714
5,PPT1_P50897_46_ALQHLDPPAPLPLVIWHGMGDSCCNPLSMGAIK (UniProt P50897),-0.0778
6,PPP2R5E_Q16537_106_GCLTEQTYPEVVR (UniProt Q16537),0.0684
7,PPP1CC_P36873_202_PTDVPDQGLLCDLLWSDPDK (UniProt P36873),-0.228
8,PPP6R2_O75170_37_EHVTLQELMDEDDILQECK (UniProt O75170),0.00336
9,PREX1_Q8TCU6_1173_DSYSECNSNR (UniProt Q8TCU6),0.634
10,PRDX4_Q13162_148_SINTEVVACSVDSQFTHLAWINTPR (UniProt Q13162),0.036
11,PPP5C_P53041_11_AMAEGERTECAEPPRDEPPADGALK (UniProt P53041),-0.251
12,PPP1R27_Q86WC6_79_KVSLATIHPSGLAALHEAVLSGNLECVK (UniProt Q86WC6),0.305
13,PPP6R2_O75170_87_FKYPNTACELLTCDVPQISDR (UniProt O75170),-0.0517
14,PPP6R1_Q9UPN7_326_LSCFHQLLLEPPKLEPLQMTWGMLAPPLGNTR (UniProt Q9UPN7),-0.092
15,PPP4R1_Q8TF05_645_HCAYSLPGVALTLGR (UniProt Q8TF05),0.165
16,PPME1_Q9Y570_238_QCEGITSPEGSK (UniProt Q9Y570),-0.174
17,PRDX2_P32119_70_LGCEVLGVSVDSQFTHLAWINTPR (UniProt P32119),0.0461
18,PREX1_Q8TCU6_1221_LHGCLEHLFNQVDSINALLK (UniProt Q8TCU6),0.0574
